Reference: paper PMC10880281
No constants are given. Whether binding was seen depends on the method and setting. In cells and extracts the contact can be indirect. Some binding calls cover weakened binding; strength is not graded here.

Biological target: T1, HK2 (human (endogenous in MHCC97H and HCCLM3)) (UniProt P52789)
T1 sequence: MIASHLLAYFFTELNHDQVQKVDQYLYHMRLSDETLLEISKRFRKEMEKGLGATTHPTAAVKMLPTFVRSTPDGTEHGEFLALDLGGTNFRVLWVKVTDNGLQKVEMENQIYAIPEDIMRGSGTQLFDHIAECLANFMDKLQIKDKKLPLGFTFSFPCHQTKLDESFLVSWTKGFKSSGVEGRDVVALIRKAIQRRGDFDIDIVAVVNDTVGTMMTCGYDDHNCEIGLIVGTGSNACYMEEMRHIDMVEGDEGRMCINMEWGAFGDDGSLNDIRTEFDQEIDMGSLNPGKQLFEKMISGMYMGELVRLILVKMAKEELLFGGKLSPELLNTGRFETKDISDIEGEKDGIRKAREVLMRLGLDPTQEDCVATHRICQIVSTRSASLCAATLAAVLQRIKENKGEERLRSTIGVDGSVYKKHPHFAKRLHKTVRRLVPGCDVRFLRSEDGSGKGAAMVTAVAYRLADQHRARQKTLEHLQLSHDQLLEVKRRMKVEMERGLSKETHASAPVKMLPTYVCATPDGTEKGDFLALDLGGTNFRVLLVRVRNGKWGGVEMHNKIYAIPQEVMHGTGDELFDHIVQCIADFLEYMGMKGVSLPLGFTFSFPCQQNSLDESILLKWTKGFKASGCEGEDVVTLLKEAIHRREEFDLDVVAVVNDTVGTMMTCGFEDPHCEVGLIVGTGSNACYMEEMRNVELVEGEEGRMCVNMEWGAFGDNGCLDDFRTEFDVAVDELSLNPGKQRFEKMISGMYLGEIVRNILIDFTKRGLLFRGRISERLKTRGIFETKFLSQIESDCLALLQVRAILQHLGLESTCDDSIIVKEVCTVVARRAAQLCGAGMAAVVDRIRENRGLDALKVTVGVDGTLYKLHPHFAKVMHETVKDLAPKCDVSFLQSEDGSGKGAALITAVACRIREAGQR
Assay: co-IP; total cell lysate with 5 µg primary antibody or IgG antibody overnight, agarose A + G 2 h at 4 °C, rinsed three times with PBS, SDS-PAGE and western blot; SQSTM1/P62 with HK2 also tested after USP14 knockdown (sh-USP14), which weakened the interaction

binding: binds
Substance: SQSTM1/P62 (from UniProt Q13501 1-440)
